Measured values from PMC6933384.

Molecular target: integrin αVβ5 receptor (mouse (endogenous in gut tissue))
Test: co-IP; mouse gut tissue after gut IR (irisin 250 μg/kg and cilengitide trifluoroacetate 20 mg/kg given iv after reperfusion); immunoprecipitation with mouse anti-integrin alpha V/beta 5 antibody (sc-81632) and Protein A/G PLUS-Agarose; Western blot for irisin, integrin alpha V and integrin beta 5

- binding: binds
B1: irisin (ligand, UniProt Q8K4Z2 1-171)
chain: MQAARGGAGRPGREGRGLERECERSPGPGVAMPPGPCAWPPRAALRLWLGCVCFALVQADSPSAPVNVTVRHLKANSAVVSWDVLEDEVVIGFAISQQKKDVRMLRFIQEVNTTTRSCALWDLEEDTEYIVHVQAISIQGQSPASEPVLFKTPREAEKMASKNKDEVTMKE

Results are given in words; binding and its absence hold for the method and conditions named. Binding seen in cells or lysates may run through a third protein. Binding can be weak; no strength is given.
